Read-outs that look alike come from different tables or passages of the source. For at least one compound, name, drawing or mass did not settle the structure. Some results were stated once for a whole list of compounds, not compound by compound.
Columns and labels:
[1] = test system: peripheral blood lymphocytes stimulated by PHA; assay: PHA stimulation assay, [3H]TdR incorporation; assay type: cell-based, human; conditions: Reverse Prenyl Compounds, read-out: IC50 PHA Assays
Protocol: Fresh peripheral blood lymphocytes isolated by Ficoll-Hypaque density centrifugation are stimulated by PHA or the OKT3 antibody (anti-CD3), which stimulates via interaction with CD3. Stimulation is measured by incorporation of radioactive thymidine [(^3H)TdR] into proliferating cells, with an unhibited control signal of 48,000-75,000 cpm. IC50 values are estimated from inhibitions of proliferation observed at various drug concentrations.

[2] = test system: peripheral blood lymphocytes stimulated by PHA; conditions: Classical immunosuppressant (historical data); read-out: IC50 PHA Assays; cited from earlier work
[3] = test system: peripheral blood lymphocytes stimulated by OKT3 antibody (anti-CD3); conditions: Classical immunosuppressant (historical data); read-out: IC50 OKT3 Assays; cited from earlier work

For 8-demethylardeemin, which IC50 ([1]; listed as 8-desmethylardeemin) is on record?
Its IC50 is 1200 to 2300 nM.

With `C=CC(C)(C)[C@@]12C[C@H]3c4nc5ccccc5c(=O)n4CC(=O)N3[C@@H]1N(C(C)=O)c1ccccc12` [5-N-acetyl-8-demethylardeemin, 5-N-acetyl-8-desmethylardeemin] as the compound, how does the IC50 [1] read?
Its IC50 is 1200 to 2300 nM.

With `C=CC[C@@H]1/C=C(\C)C[C@H](C)C[C@H](OC)[C@H]2O[C@@](O)(C(=O)C(=O)N3CCCC[C@H]3C(=O)O[C@H](/C(C)=C/[C@@H]3CC[C@@H](O)[C@H](OC)C3)[C@H](C)[C@@H](O)CC1=O)[C@H](C)C[C@@H]2OC` [FK-506] as the compound, how does the IC50 [2] read?
Its IC50 is 29 ± 8 nM.

What about the IC50 [3] of the same compound?
The IC50 was 27 ± 20 nM.

For `CO[C@H]1C[C@@H]2CC[C@@H](C)[C@@](O)(O2)C(=O)C(=O)N2CCCC[C@H]2C(=O)O[C@H]([C@H](C)C[C@@H]2CC[C@@H](O)[C@H](OC)C2)CC(=O)[C@H](C)/C=C(\C)[C@@H](O)[C@@H](OC)C(=O)[C@H](C)C[C@H](C)/C=C/C=C/C=C/1C` [Rapamycine], which IC50 [2] is on record?
The IC50 was 610 ± 320 nM.

What about the IC50 [3] of the same compound?
Its IC50 is 140 ± 80 nM.
